For at least one compound, name, drawing or mass did not settle the structure.
Test system: quizalofop tolerant mutant wheat accessions
Assay: Cross-resistance study, plant survival after other ACCase herbicides (quizalofop tolerant mutants)
Type: in vivo, Triticum aestivum L.
Settings: clethodim 65, sethoxydim 264 g ai ha^-1; 28 DAT
Method: A cross-resistance study was conducted within the ACCase herbicide mode of action using herbicides normally lethal to wheat. Clethodim, sethoxydim, and fluazifop were used at rates of 65, 264, and 361 g ai ha^−1, plus a treatment of clethodim and 10.5 g ai ha^−1 quizalofop. Seven DAT the tops of plants were cut off above the newest above-ground growing point. Binomial evaluation of plant survival was performed 28 DAT. Tolerance of quizalofop mutants to clethodim and sethoxydim was low (Table 1). The presence of any cross tolerance presents evidence that combining multiple homologous resistant ACCase genes into a single plant could lead to resistance to additional herbicides. At this stage only a third of the total ACCase in the plant would have a mutation and contain tolerance to ACCase inhibitors if the mutation is target-site-based.

CCSC(C)CC1CC(=O)C(/C(CC)=N/OC/C=C/Cl)=C(O)C1 (stereo not shown) [Clethodim, clethodim]
Tolerance of quizalofop mutants (cross-resistance): low

Source: US9578880B2, “Acetyl co-enzyme A carboxylase herbicide resistant plants” (Colorado Wheat Research Foundation, Inc., priority 2011, dated 2017)
